Source: paper PMC9016900
No constants are given. Whether binding was seen depends on the method and setting. Binding seen in cells or lysates may run through a third protein. Some binding calls cover weakened binding; strength is not graded here. Where a sequence is shown, tags or fusion partners need not be part of it. One block for each molecule: values may come before it.

The chains behind the UniProt entries cited, without tags or fusion partners.
UniProt Q14145: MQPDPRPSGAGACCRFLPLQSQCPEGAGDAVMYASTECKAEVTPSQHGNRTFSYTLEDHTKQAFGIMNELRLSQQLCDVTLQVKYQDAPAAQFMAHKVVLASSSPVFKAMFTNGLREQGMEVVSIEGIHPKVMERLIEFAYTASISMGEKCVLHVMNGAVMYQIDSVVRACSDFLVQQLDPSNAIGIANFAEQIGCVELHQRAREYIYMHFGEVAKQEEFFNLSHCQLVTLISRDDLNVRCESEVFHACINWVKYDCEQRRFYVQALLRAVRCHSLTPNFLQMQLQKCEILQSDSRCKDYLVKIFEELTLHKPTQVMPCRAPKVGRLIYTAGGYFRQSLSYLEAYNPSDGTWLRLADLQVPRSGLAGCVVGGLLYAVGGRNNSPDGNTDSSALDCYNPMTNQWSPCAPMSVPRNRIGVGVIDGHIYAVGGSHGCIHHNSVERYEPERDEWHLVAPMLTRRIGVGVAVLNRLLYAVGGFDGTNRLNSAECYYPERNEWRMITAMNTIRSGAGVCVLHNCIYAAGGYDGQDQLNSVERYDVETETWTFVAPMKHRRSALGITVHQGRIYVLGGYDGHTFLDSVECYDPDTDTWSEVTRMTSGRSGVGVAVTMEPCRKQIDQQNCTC
UniProt Q9UKB1: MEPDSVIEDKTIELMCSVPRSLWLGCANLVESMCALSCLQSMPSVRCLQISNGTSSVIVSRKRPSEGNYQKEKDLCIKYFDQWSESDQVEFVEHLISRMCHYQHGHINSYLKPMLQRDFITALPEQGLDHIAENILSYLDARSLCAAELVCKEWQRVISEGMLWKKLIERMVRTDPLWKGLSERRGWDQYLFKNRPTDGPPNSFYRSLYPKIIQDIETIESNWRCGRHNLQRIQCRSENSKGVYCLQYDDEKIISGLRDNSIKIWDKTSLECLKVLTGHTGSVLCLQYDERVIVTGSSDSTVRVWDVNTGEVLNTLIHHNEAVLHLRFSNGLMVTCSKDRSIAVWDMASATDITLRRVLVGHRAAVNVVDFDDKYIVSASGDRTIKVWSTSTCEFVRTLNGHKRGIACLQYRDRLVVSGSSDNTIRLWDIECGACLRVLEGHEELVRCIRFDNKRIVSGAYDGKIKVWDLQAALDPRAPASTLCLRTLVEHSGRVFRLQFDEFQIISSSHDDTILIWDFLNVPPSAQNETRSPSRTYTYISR

Assays:
[1] = target: T1, Nuclear factor erythroid 2-related factor 2 (Nrf2), human, split-ubiquitin fusion (human) (UniProt Q16236); assay: split reporter; yeast split-ubiquitin system: Nub (NuI, NuA, NuG) and Cub-RUra3p (CRU) fusions co-expressed in yeast; interaction = no growth on uracil- media and growth on 5FOA media; 5x serial dilutions spotted on selective agar plates
T1 sequence: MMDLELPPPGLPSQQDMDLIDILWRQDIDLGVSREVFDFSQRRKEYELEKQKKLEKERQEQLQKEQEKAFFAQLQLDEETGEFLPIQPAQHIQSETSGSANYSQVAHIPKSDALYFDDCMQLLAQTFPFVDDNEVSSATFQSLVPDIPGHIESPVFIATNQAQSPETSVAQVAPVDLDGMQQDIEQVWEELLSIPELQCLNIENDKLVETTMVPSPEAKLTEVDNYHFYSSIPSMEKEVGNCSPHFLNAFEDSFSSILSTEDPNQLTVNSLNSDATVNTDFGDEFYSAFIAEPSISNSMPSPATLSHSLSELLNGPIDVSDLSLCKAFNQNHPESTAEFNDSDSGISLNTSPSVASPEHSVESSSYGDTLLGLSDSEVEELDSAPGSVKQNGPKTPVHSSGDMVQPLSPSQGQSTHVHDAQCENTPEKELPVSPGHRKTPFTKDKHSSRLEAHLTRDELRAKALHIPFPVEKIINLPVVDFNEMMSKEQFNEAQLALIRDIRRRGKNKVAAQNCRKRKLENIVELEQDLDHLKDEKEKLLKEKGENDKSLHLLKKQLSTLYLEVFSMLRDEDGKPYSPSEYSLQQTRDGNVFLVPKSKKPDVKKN

[2] = target: Kelch-like ECH-associated protein (Keap1), human, split-ubiquitin fusion (human) (UniProt Q14145); assay: as above

binding [1]: binds | binding [2]: binds
Molecule: β-transducin repeat-containing protein (βTrCP), human, split-ubiquitin fusion (from UniProt Q9UKB1 1-542)

binding [2]: binds
B1: prothymosin alpha (ProTα), human, split-ubiquitin fusion (protein, UniProt P06454 1-111)
chain: MSDAAVDTSSEITTKDLKEKKEVVEEAENGRDAPANGNAENEENGEQEADNEVDEEEEEGGEEEEEEEEGDGEEEDGDEDEEAESATGKRAAEDDEDDDVDTKKQKTDEDD
